This is one part of the list.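 Rule for the calls: active = dose-dependent thermal stabilisation significant by F-test of dose-response against flat model at 10% FDR; inactive = not significant.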

The chains behind the UniProt entries cited, without tags or fusion partners. Where a name states a change or a piece, a line headed by the entry shows the natural chain unless it says otherwise.
UniProt P54132: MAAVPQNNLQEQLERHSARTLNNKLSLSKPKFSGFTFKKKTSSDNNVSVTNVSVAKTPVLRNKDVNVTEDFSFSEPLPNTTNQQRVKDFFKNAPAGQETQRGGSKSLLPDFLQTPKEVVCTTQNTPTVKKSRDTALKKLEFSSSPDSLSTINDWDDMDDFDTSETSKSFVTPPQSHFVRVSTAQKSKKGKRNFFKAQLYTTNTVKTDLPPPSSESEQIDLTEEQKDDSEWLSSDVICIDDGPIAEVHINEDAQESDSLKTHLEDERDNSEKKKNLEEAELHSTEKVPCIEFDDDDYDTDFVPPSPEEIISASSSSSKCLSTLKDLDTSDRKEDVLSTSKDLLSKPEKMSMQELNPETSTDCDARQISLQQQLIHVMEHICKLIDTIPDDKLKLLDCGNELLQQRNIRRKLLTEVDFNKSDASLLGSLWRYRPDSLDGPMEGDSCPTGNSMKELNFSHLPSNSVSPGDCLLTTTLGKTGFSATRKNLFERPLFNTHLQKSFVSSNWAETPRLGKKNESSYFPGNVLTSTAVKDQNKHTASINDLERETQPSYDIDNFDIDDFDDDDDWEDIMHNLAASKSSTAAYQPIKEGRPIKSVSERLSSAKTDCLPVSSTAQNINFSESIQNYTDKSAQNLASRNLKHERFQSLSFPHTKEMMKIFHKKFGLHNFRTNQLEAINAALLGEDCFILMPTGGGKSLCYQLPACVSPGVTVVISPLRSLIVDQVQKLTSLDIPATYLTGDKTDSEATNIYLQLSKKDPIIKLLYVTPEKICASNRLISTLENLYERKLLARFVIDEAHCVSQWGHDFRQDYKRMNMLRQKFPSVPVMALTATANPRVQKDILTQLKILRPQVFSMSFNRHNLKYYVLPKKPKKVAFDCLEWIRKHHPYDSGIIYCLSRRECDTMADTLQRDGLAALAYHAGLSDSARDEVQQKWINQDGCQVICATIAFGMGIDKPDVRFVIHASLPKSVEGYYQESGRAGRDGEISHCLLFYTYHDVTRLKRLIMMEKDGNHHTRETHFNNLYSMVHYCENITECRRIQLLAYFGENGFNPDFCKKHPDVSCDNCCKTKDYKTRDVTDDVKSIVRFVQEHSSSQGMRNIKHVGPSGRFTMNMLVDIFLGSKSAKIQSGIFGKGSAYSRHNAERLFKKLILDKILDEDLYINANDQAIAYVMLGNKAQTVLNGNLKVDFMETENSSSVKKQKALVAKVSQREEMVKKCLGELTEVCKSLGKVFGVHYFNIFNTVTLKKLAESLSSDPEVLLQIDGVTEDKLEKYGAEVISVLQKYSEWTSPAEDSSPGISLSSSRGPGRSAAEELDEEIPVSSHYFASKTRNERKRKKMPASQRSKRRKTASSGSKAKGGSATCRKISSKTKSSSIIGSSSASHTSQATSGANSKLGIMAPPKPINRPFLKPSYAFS
UniProt Q7Z6I8: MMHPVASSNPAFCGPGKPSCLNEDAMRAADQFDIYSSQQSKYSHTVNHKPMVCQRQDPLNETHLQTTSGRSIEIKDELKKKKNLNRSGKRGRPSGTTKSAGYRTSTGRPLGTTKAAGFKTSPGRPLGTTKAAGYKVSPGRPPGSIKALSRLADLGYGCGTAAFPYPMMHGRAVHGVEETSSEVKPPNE
UniProt Q8N0T1: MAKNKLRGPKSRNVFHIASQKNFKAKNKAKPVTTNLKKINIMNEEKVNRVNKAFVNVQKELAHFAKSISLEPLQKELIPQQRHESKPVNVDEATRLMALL
UniProt Q9P287, whole entry: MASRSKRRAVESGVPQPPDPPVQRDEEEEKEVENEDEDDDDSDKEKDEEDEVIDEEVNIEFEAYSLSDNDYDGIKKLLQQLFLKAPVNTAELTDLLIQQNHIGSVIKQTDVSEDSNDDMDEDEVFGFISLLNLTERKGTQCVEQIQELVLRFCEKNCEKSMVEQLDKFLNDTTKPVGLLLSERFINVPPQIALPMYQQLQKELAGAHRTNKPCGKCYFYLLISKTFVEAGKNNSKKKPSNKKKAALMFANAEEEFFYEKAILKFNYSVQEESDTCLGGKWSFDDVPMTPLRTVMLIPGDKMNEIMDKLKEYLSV
UniProt P61769, whole entry: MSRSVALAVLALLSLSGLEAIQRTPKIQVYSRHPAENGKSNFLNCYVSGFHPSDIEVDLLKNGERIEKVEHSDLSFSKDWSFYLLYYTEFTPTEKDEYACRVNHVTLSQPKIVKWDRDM
UniProt Q8WUW1: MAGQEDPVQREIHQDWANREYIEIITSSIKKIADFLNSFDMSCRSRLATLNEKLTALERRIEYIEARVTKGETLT
UniProt Q9P1Y5: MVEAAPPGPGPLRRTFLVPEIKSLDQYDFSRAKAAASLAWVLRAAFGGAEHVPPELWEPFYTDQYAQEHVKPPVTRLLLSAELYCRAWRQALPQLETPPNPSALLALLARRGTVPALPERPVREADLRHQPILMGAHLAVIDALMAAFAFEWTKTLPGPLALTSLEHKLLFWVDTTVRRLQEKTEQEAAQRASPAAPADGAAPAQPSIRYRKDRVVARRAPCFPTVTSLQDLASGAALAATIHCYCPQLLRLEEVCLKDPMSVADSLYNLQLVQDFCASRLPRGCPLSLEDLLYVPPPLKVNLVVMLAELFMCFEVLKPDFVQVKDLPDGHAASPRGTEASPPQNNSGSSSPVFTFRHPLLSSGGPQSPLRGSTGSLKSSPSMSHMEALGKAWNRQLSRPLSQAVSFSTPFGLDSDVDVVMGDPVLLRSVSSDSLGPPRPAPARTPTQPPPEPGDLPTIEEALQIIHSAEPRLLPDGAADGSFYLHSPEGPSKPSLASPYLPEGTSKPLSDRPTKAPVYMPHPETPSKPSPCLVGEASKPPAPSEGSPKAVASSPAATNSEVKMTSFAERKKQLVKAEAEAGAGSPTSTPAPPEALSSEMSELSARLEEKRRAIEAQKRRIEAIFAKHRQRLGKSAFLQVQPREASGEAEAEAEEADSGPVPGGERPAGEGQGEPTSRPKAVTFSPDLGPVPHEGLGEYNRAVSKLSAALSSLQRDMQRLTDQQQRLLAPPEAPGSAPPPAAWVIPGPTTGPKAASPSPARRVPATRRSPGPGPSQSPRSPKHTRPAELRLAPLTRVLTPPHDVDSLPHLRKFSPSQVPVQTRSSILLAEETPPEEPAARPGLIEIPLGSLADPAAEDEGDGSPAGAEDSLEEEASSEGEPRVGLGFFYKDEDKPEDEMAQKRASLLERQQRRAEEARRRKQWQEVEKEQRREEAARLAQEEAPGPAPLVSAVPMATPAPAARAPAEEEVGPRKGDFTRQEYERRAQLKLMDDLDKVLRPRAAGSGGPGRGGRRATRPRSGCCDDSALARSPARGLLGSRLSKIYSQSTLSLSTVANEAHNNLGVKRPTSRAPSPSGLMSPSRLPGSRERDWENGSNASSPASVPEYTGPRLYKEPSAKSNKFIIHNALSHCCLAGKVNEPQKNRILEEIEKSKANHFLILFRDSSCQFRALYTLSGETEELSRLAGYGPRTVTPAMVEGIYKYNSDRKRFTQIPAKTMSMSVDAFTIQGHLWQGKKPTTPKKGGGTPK
UniProt O95816: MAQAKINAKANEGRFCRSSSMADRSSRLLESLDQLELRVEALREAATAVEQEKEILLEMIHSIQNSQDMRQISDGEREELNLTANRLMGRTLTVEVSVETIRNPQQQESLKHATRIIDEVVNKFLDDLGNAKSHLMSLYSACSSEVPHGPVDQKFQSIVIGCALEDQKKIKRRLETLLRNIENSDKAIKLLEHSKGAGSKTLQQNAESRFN
UniProt Q96RR4, whole entry, looked up: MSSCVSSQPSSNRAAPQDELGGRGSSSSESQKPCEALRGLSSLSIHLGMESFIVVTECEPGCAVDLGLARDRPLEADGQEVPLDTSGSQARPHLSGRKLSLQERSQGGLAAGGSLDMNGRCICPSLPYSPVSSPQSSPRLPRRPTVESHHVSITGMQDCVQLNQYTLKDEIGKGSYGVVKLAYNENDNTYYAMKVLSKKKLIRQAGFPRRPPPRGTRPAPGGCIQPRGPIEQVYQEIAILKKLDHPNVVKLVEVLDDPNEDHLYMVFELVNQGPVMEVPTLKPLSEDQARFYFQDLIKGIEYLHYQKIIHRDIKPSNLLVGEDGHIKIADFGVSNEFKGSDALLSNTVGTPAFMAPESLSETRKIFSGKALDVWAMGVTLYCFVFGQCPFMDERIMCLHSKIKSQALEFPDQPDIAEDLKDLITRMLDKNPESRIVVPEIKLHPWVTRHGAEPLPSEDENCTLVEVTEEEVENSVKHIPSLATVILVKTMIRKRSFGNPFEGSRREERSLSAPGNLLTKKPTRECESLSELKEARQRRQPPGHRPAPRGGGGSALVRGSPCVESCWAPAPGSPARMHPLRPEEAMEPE
UniProt Q8TBE0: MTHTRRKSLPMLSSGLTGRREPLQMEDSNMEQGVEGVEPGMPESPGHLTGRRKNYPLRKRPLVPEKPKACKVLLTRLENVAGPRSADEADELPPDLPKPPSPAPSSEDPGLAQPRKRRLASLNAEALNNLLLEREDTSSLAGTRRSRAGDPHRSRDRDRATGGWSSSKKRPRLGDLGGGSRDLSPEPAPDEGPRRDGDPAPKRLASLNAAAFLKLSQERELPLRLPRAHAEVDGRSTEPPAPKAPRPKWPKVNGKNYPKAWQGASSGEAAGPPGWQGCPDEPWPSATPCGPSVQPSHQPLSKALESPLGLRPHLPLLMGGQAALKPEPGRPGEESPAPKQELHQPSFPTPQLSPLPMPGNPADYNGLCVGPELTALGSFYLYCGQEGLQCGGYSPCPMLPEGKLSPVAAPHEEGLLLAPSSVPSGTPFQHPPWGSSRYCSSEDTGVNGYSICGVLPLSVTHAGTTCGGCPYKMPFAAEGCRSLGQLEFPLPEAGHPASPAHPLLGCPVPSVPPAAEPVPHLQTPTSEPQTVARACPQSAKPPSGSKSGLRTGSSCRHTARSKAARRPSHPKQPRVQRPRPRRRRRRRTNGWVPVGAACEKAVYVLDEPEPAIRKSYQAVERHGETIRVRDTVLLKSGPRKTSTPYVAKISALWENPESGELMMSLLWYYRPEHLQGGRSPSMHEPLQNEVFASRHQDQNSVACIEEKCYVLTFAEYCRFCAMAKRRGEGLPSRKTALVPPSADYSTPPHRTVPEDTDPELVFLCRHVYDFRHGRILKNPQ
UniProt Q6ZSJ8: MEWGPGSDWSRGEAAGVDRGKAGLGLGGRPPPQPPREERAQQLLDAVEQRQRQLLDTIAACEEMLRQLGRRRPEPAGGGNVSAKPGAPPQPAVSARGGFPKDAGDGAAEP
UniProt P27797, whole entry: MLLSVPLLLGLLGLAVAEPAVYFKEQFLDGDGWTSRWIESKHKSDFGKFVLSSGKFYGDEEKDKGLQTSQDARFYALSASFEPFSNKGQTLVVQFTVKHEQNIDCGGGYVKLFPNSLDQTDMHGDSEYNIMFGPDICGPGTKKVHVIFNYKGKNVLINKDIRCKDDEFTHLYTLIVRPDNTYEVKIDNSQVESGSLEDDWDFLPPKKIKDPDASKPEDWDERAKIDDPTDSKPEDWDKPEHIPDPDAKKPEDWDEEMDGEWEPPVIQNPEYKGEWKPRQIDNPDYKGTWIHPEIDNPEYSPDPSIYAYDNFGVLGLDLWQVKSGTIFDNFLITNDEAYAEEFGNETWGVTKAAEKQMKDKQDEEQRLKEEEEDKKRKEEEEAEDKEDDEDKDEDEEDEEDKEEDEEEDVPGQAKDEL

The text below walks through data of the supplement of paper PMC7666118.

Compound in this assay: Nc1nc2c(ncn2[C@@H]2O[C@H](COP(=O)(O)OP(=O)(O)OP(=O)(O)O)[C@@H](O)[C@H]2O)c(=O)[nH]1
Description: dose-dependent thermal stabilisation call (2D-TPP, DLPTP, 10% FDR) (binary (1 = stabilised)); higher = stabilised by the compound. The following applies: system: Jurkat gel-filtered lysate; concentration range 1-500 µM.
As to ARSA (UniProt P15289), the “dose-dependent thermal stabilisation call” value is inactive: 0.

In the case of ARHGEF18 (UniProt Q6ZSZ5), the “dose-dependent thermal stabilisation call” value was inactive: 0.

Consider BID (UniProt P55957), for which the “dose-dependent thermal stabilisation call” value was inactive: 0.

In the case of BLM (UniProt P54132), the “dose-dependent thermal stabilisation call” value was inactive: 0.

Turning to ATP5A1 (UniProt P25705), the “dose-dependent thermal stabilisation call” value is active: 1.

With C5orf24 (UniProt Q7Z6I8), the “dose-dependent thermal stabilisation call” value was inactive: 0.

For C8orf59 (UniProt Q8N0T1), the “dose-dependent thermal stabilisation call” value is inactive: 0.

For BLOC1S5 (UniProt Q8TDH9), the “dose-dependent thermal stabilisation call” value is inactive: 0.

CALCOCO2 (UniProt Q13137): the “dose-dependent thermal stabilisation call” value was inactive: 0.

Turning to CAPZA2 (UniProt P47755), the “dose-dependent thermal stabilisation call” value was inactive: 0.

For the target BCL10 (UniProt O95999), the “dose-dependent thermal stabilisation call” value is inactive: 0.

BCCIP (UniProt Q9P287): the “dose-dependent thermal stabilisation call” value was inactive: 0.

For the target B2M (UniProt P61769), the “dose-dependent thermal stabilisation call” value is inactive: 0.

Regarding BANF1 (UniProt O75531), the “dose-dependent thermal stabilisation call” value is active: 1.

In the case of BOP1 (UniProt Q14137), the “dose-dependent thermal stabilisation call” value is active: 1.

For the target BTAF1 (UniProt O14981), the “dose-dependent thermal stabilisation call” value is active: 1.

For the target BRK1 (UniProt Q8WUW1), the “dose-dependent thermal stabilisation call” value was inactive: 0.

Turning to C16orf62 (UniProt Q7Z3J2), the “dose-dependent thermal stabilisation call” value is active: 1.

Turning to BCL2L13 (UniProt Q9BXK5), the “dose-dependent thermal stabilisation call” value was inactive: 0.

As to ARRB2 (UniProt P32121), the “dose-dependent thermal stabilisation call” value is inactive: 0.

Regarding CAMSAP3 (UniProt Q9P1Y5), the “dose-dependent thermal stabilisation call” value is inactive: 0.

C21orf59 (UniProt P57076): the “dose-dependent thermal stabilisation call” value was inactive: 0.

Regarding ATF1 (UniProt P18846), the “dose-dependent thermal stabilisation call” value was inactive: 0.

For the target BOLA2, BOLA2B (UniProt Q9H3K6), the “dose-dependent thermal stabilisation call” value was inactive: 0.

Take BAG2 (UniProt O95816): the “dose-dependent thermal stabilisation call” value is inactive: 0.

For CAMKK2 (UniProt Q96RR4), the “dose-dependent thermal stabilisation call” value was inactive: 0.

As to C8orf82 (UniProt Q6P1X6), the “dose-dependent thermal stabilisation call” value is inactive: 0.

For CAPRIN1 (UniProt Q14444), the “dose-dependent thermal stabilisation call” value is inactive: 0.

For the target ASB6 (UniProt Q9NWX5), the “dose-dependent thermal stabilisation call” value is inactive: 0.

For the target BAHD1 (UniProt Q8TBE0), the “dose-dependent thermal stabilisation call” value was inactive: 0.

As to C1orf122 (UniProt Q6ZSJ8), the “dose-dependent thermal stabilisation call” value is inactive: 0.

With BRIP1 (UniProt Q9BX63), the “dose-dependent thermal stabilisation call” value was inactive: 0.

Regarding BCL7A (UniProt Q4VC05), the “dose-dependent thermal stabilisation call” value is inactive: 0.

Turning to ARMC8 (UniProt Q8IUR7), the “dose-dependent thermal stabilisation call” value is inactive: 0.

As for ARHGEF1 (UniProt Q92888), the “dose-dependent thermal stabilisation call” value is inactive: 0.

On to CALR (UniProt P27797), for which the “dose-dependent thermal stabilisation call” value is inactive: 0.
